According to PubChem BioAssay AID2685 (National Center for Advancing Translational Sciences (NCATS), 2010):
The other results are listed elsewhere or left out. The main result of the screen is listed elsewhere. These columns were measured beside it and carry no call. Compounds called inactive in the main read-out are mostly missing here. Potencies come from curve fits of mixed quality, noted in brackets.

Experiment: qHTS Assay for Lipid Storage Modulators in Drosophila S3 Cells;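 on cell number change: cells counted by Cell Tracker Red CMTPX staining in the red channel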
Conditions: BODIPY lipid droplet fluorescence, 18-24 h; for cell number change: measured here: cell count max response, cells fed with added oleic acid
Outline: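 Drosophila S3 cells loaded with oleic acid (400 uM, as added) and compounds at several concentrations; lipid droplets imaged by 488-nm laser-scanning cytometry, 500–530 nm intensity and object ratio to cell channel. Percent activity normalized to 20 uM Triacsin C.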

[1] = measured here: lipid fluorescence (Fed channel) AC50, cells fed with added oleic acid
[2] = measured here: cell number channel AC50, cells fed with added oleic acid

Row | Structure (SMILES) | AC50 [1] | cell number change | AC50 [2]
1 | Cc1ccc2c(c1)[C@H]1[C@H](CO2)[C@H](c2ccccc2)[C@]2(C)C(=O)Nc3cc(Cl)ccc3C(=O)N12 | 0.731 µM [rising, full curve, poor fit] |  | 
2 | O=C(CCCN1C(=O)/C(=C\c2ccccc2)SC1=S)Nc1ccc(C(=O)O)cc1 | 29.1 µM [falling, single point] | -26.7% | 
3 | NS(=O)(=O)c1ccc(CCNC(=O)c2cc(=O)[nH]c3ccccc23)cc1 |  | 32.6% | 
4 | N#Cc1ccc(Nc2nc(-c3ccc(O)cc3O)cs2)cc1C(F)(F)F | 1.16 µM [rising, partial curve] | -75.6% | 18.4 µM [falling, single point]
5 | O=C(CCSc1nnc(-c2ccco2)o1)Nc1ccccc1 | 4.11 µM [falling, single point] | 64.3% | 18.4 µM [rising, single point]
6 | O=c1[nH]nc(SCc2cc(Cl)ccc2Cl)c(=O)[nH]1 | 29.1 µM [rising, single point] | 17% | 
7 | CCN(CC)CCOC(=O)c1ccc(NC(=O)CCCN2C(=O)S/C(=C/c3ccc(OC)cc3)C2=S)cc1 | 29.1 µM [falling, single point] | -42.1% | 7.31 µM [falling, partial curve, poor fit]
8 | CC1CC(C)CN(C(=O)COC(=O)c2ccc3ccccc3n2)C1 (stereo unspecified) |  | -48.3% | 29.1 µM [falling, single point]
9 | Cc1ccnc2c1ccc1ccccc12 | 29.1 µM [falling, single point] | 8.11% | 0.461 µM [rising, full curve, poor fit]
10 | CCOC(=O)CSc1ncc(-c2ccccc2)cn1 | 3.66 µM [falling, partial curve] | 13.5% | 
11 | COc1ccc(NC(=S)N(CCc2ccc(OC)c(OC)c2)Cc2ccccn2)cc1 | 0.184 µM [rising, full curve] | 34.6% | 0.517 µM [rising, full curve]
12 | Cc1ccccc1CC1CCN(CCCNC(=O)Nc2ccccc2)CC1 | 0.58 µM [rising, full curve, poor fit] | 23.6% | 
13 | Cc1ccc(C(O)(C(=O)NNc2ccc3ccccc3n2)c2ccc(C)cc2)cc1 | 10.3 µM [falling, single point] | -33.3% | 29.1 µM [falling, single point]
14 | O=C(O)c1ccccc1N=N/C(=N/Nc1cc(S(=O)(=O)O)ccc1O)c1ccccc1 | 29.1 µM [falling, single point] | 9.03% | 0.00461 µM [falling, full curve, poor fit]
15 | CCNS(=O)(=O)c1ccc(CCC(=O)O)cc1 | 0.82 µM [falling, full curve, poor fit] | -22.4% | 
16 | Cc1cc(NC(=O)CSCC(=O)Nc2ccccc2OC(F)F)no1 |  | 18.1% | 
17 | CCOc1ccc(S(=O)(=O)N2CCCC(C(=O)N3CCN(CC)CC3)C2)cc1Cl (stereo unspecified) |  | 2.61% | 
18 | CCCC1=NN(c2ccc([N+](=O)[O-])cc2)C(=O)/C1=C\N(C)C | 5.8 µM [rising, partial curve] | 69.8% | 29.1 µM [rising, single point]
19 | NC(=O)CSc1nnc(-c2ccccn2)n1N | 2.59 µM [falling, full curve, poor fit] | -11.1% | 

Row | Structure (SMILES) | AC50 [1] | cell number change | AC50 [2]
20 | O=C(NCCO)c1ccc(-c2nnc(Nc3ccc(O)cc3)c3ccccc23)cc1 | 6.51 µM [rising, single point] |  | 
21 | CC(=O)c1cccc(NC(=O)c2ccc(Br)o2)c1 | 0.0259 µM [falling, full curve, poor fit] | -6.58% | 
22 | CC(C)c1ccc(NCCC(=O)c2cccs2)cc1 | 4.61 µM [rising, full curve] | 15.8% | 
23 | Cc1nn(Cc2ccccc2Cl)c2sc(C(=O)Nc3ccccc3N3CCOCC3)cc12 | 0.058 µM [rising, full curve, poor fit] | 13.5% | 2.31 µM [rising, partial curve]
24 | Cc1cccc(NC(=O)c2sc3nc(-c4ccccc4)cn3c2C)n1 | 0.651 µM [rising, full curve] |  | 0.651 µM [rising, full curve]
25 | CCOC(=O)C1(CC)NC(c2ccco2)C2C(=O)N(CC)C(=O)C21 (stereo unspecified) |  |  | 6.51 µM [falling, single point]
26 | Cc1cccc(S(=O)(=O)c2c(N)n(/N=C/c3ccccc3)c3nc4ccccc4nc23)c1 | 23.1 µM [rising, partial curve] | 151% | 0.366 µM [rising, full curve]
27 | CN(C(=O)c1ccc(NC(=O)Cc2cccc(NC(=O)C3CCN(C(=O)C4CCCC4)CC3)c2)cc1)C1CCCC1 | 1.64 µM [falling, single point] | -11.6% | 7.31 µM [falling, single point]
28 | COc1cccc(NC(=O)N2CCCC2C(=O)Nc2ccc3c(c2)OCCO3)c1 (stereo unspecified) |  |  | 6.51 µM [rising, single point]
29 | Cc1c(N2C(=O)CSC2c2ccccc2)c(=O)n(-c2ccccc2)n1C (stereo unspecified) |  | 11.1% | 
30 | CN(C)CC(C)(C)NS(=O)(=O)c1ccc(Cl)cc1 | 0.146 µM [falling, full curve] | 5.04% | 
31 | CS(=O)(=O)N(CC(=O)Nc1ccc2c(c1)OCO2)c1ccc2c(c1)OCO2 |  | -51.4% | 20.6 µM [falling, single point]
32 | Cc1ccc(NC(=O)c2cc(S(=O)(=O)N3CCCCC3)c[nH]2)cc1C | 29.1 µM [falling, single point] | 1.8% | 
33 | CCN(c1ccc(NC(=O)CCNC(=O)c2ccco2)cc1)C(C)C |  | -83.3% | 20.6 µM [falling, single point]
34 | CCC(=O)Nc1cc(Cl)ccc1C(=O)O | 2.31 µM [falling, single point] | -1.19% | 
35 | Cc1cc(C)n(C(=O)CNC(=O)c2ccc(Cl)cc2Cl)n1 |  | 45.2% | 18.4 µM [rising, single point]
36 | O=C(Nc1ccc2ccccc2n1)c1ccccc1 | 5.17 µM [rising, full curve, poor fit] | 17.6% | 
37 | CCCSCC(=O)Nc1ncc2c(n1)-c1ccccc1CC2 | 6.51 µM [rising, partial curve, poor fit] | -23.1% | 
38 | O=C(CSc1nc(C2CC2)nc2ccccc12)N1CCCCC1 |  | 5.22% | 

Row | Structure (SMILES) | AC50 [1] | cell number change | AC50 [2]
39 | CC(C)CN(C(=O)c1ccc2c(c1)OCO2)C1CCS(=O)(=O)C1 (stereo unspecified) | 2.31 µM [falling, full curve] | 12.7% | 
40 | CCOC(=O)N1CCN(C(=O)C(=O)N/N=C/c2ccc(OC)cc2OC)CC1 | 0.00461 µM [falling, full curve, poor fit] | -17.5% | 
41 | O=C(c1cc(-c2cccs2)nc2ccccc12)N1CCN(CCO)CC1 | 6.51 µM [falling, single point] |  | 6.51 µM [falling, single point]
42 | S=C(NCC(c1ccco1)N1CCCC1)Nc1ccccc1 (stereo unspecified) | 4.11 µM [rising, single point] | 21% | 
43 | COc1ccc(-c2cc(C(=O)N3CCN(S(=O)(=O)c4ccccc4)CC3)[nH]n2)cc1 | 6.51 µM [rising, single point] | 4.9% | 
44 | CCNC(=S)N(CCc1c(C)[nH]c2ccccc12)Cc1cc(OC)c(OC)c(OC)c1 | 29.1 µM [falling, single point] | -69.6% | 18.4 µM [falling, single point]
45 | COc1ccc2c(c1OC)C(=O)OC2CC(=O)c1ccc(O)c(O)c1 (stereo unspecified) | 6.51 µM [falling, single point] | 14.5% | 
46 | Cn1ncc2nc[nH]c(=O)c21 | 29.1 µM [falling, single point] | -42.9% | 1.3 µM [falling, full curve]
47 | Clc1ccc(Nc2nc(N3CCOCC3)nc(N3CCOCC3)n2)cc1Cl | 1.46 µM [rising, partial curve] | 42.5% | 6.51 µM [rising, partial curve]
48 | O=C(O)C=C(Br)Br | 0.092 µM [falling, full curve, poor fit] | -6.68% | 
49 | Cc1cccc(-n2ncc3c(=O)[nH]c(SCC(=O)N4CC(=O)Nc5ccccc54)nc32)c1 | 0.116 µM [falling, full curve, poor fit] | -3.26% | 
50 | O=C(CSc1ncn[nH]1)Nc1ccccc1Sc1ccccc1 | 6.51 µM [falling, single point] | -8.5% | 
51 | COc1cccc(CNS(=O)(=O)/C=C/c2ccc(OC)c(OC)c2)c1 |  | -3.74% | 
52 | COC(=O)c1cccc(N(C(=O)CNC(=O)c2cccs2)C(C(=O)NCC2CCCO2)c2ccc(OC)c(OC)c2)c1 (stereo unspecified) | 1.03 µM [rising, single point] | 16.1% | 
53 | C=CCNC(=O)C1CCN(c2c([N+](=O)[O-])cc(C(F)(F)F)cc2[N+](=O)[O-])CC1 |  |  | 2.59 µM [rising, partial curve]
54 | Cc1nn(Cc2ccc(F)cc2)c(C)c1NC(=O)c1cc(-c2ccc3c(c2)OCO3)on1 | 0.82 µM [rising, partial curve] | 3.69% | 
55 | CCCc1nc2c(c(=O)c3ccccc3n2C)c(=O)n1-c1ccc(F)cc1 | 29.1 µM [rising, single point] |  | 
56 | Cc1nc(CSc2nsc(/C=C/N(C)C)c2C#N)cs1 |  | 74.8% | 13 µM [rising, partial curve]
57 | COc1ccc(N2C(=O)c3ccccc3NC23CCC(C)CC3)cc1 (stereo unspecified) | 0.92 µM [rising, partial curve] | 14.8% | 

Five consecutive compounds from above, quoted:
Row | Structure (SMILES) | AC50 [1] | cell number change | AC50 [2]
30 | CN(C)CC(C)(C)NS(=O)(=O)c1ccc(Cl)cc1 | 0.146 µM [falling, full curve] | 5.04% | 
31 | CS(=O)(=O)N(CC(=O)Nc1ccc2c(c1)OCO2)c1ccc2c(c1)OCO2 |  | -51.4% | 20.6 µM [falling, single point]
32 | Cc1ccc(NC(=O)c2cc(S(=O)(=O)N3CCCCC3)c[nH]2)cc1C | 29.1 µM [falling, single point] | 1.8% | 
33 | CCN(c1ccc(NC(=O)CCNC(=O)c2ccco2)cc1)C(C)C |  | -83.3% | 20.6 µM [falling, single point]
34 | CCC(=O)Nc1cc(Cl)ccc1C(=O)O | 2.31 µM [falling, single point] | -1.19% | 
